Reference: PubChem BioAssay AID504648 (National Center for Advancing Translational Sciences (NCATS), 2011)
Out of some 390,000 compounds screened, about 610 (0.16%) were called active. Inconclusive means that the source gave no clear call. Such entries were picked first, then a sample of the others. The call rests on the fitted dose curve; in most records, active means well fitted inhibition curve with a large enough effect; inconclusive means small, poorly fitted or top-dose-only effect, or effect the other way, or another doubt; inactive means no such curve, though single readings can be large or run the other way. Potencies of inconclusive entries are doubtful fits and often do not repeat.

Test: Nrf2 qHTS screen for inhibitors: counterscreen for cytotoxicity
Settings: A549 ARE-Fluc cells, CellTiter-Fluor viability, 18-24 h; activity change, negative = cytotoxicity: at 46 µM (top of the series)
How it was run: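 Cytotoxicity counterscreen: CellTiter-Fluor fluorescence was measured in A549 ARE_Fluc cells after 18-24 h of compound exposure in a concentration series. The subsequent BugLite luminescent read reports ARE-luciferase activity.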
On the % scale 0 is the no-effect control and ±100 the full control effect; potency means the concentration at half of the fitted maximal effect.

SMILES	Potency	activity change, negative = cytotoxicity
Cc1ccc(NC(=O)COc2ccc(N(C)C(=O)C(C)(C)C)cc2)cc1S(=O)(=O)N1CCCCC1	inconclusive: 20.6 µM [falling, partial curve]	–
O=[N+]([O-])c1cccc(-c2cnc3ccccc3n2)c1	–	inactive: 5.89%
O=C(Cn1c(=O)c2cc(Cl)ccc2n2nncc12)Nc1ccccc1	–	inactive: -3.81%
CCc1ccc(-c2nc(CN3CCCC(C(=O)N4CCN(c5cc(Cl)ccc5C)CC4)C3)c(C)o2)cc1 (centres undefined)	inconclusive: 29.1 µM [falling, partial curve, poor fit]	–
COc1ccc(C2=NN(c3ccccc3)C(c3ccc(OC)c(OC)c3)C2)cc1 (centres undefined)	inconclusive: 29.1 µM [activator, single point]	–
O=C(N/N=C(\c1ccccc1)c1cccnc1)c1cccc(F)c1	inconclusive: 0.517 µM [falling, full curve, poor fit]	–
CCN(C(=S)Nc1ccc(Oc2ccccc2)cc1)c1ccccc1	–	inactive: -3%
CCC(=O)c1cn(CC(=O)Nc2cccc(C)c2C)c2ccccc12	–	inactive: 0.499%
CCCNC(=O)C(Cc1ccc(C(F)(F)P(=O)(OCC)OCC)cc1)NC(=O)c1ccc(C#N)cc1 (centres undefined)	–	inactive: 4.68%
COc1ccc(-c2cc(=O)oc3c(C)c(O)c(CN(C)C)cc23)cc1	inconclusive: 7.31 µM [activator, partial curve]	–
CCCCCCOc1ccc(/C=C/C(=O)N2CCOCC2)cc1OC	–	inactive: -9.96%
CN(CC(=O)Nc1ccccc1Cl)C(=O)c1cccc(S(=O)(=O)N2CCN(c3ccccc3)CC2)c1	–	inactive: -20.2%
CC1(C)Cc2c(c(N3CCOCC3)nc3sc4c(NCCN)ncnc4c23)CO1	inconclusive: 23.1 µM [falling, single point]	–
Cc1csc(N/N=C/c2ccccn2)n1	inconclusive: 16.4 µM [falling, single point]	–
O=C(NCCC1=CCCCC1)c1c(O)nc2ccccn2c1=O	inconclusive: 3.26 µM [activator, single point]	–
O=C(c1ccccc1F)N1CCN(c2cccc(C(F)(F)F)c2)CC1	inconclusive: 29.1 µM [falling, single point]	–
CN(C)c1ccc(C2Nc3cccc4cccc(c34)N2)cc1	–	inactive: -4.75%
O=C(c1ccccc1)c1nc[nH]c1C(=O)Nc1ccccn1	–	inactive: 2.84%
Cc1ccc(/C=C/C(=O)c2nc3ccccc3[nH]2)cc1	inconclusive: 23.1 µM [falling, single point]	–
COCC(=O)OC1CCn2c1nc1c2C(=O)C(C)=C(NC(C)=O)C1=O (centres undefined)	inconclusive: 29.1 µM [falling, single point]	–
Cc1cccc(NC(=S)N=Nc2c(O)n(CN3CCOCC3)c3ccccc23)c1C	inconclusive: 25.9 µM [falling, partial curve, poor fit]	–
Oc1ccc(Br)cc1/C=N/n1c(COc2ccccc2)n[nH]c1=S	–	inactive: 1.13%

SMILES	Potency	activity change, negative = cytotoxicity
O=C(/C=C/c1ccccc1Cl)c1ccccc(=O)c1O	inconclusive: 23.1 µM [falling, single point]	–
OC(CNCCC1C=Nc2ccccc21)Cn1c2ccc(Cl)cc2c2cc(Cl)ccc21 (centres undefined)	inconclusive: 29.1 µM [falling, partial curve, poor fit]	–
COc1ccc(/C=C\c2onc(C)c2S(=O)(=O)N2CCC(C(=O)NCCC(C)C)CC2)cc1	inconclusive: 29.1 µM [falling, single point]	–
CC(=O)C1=C(C)Nc2cc(C(F)(F)F)ccc2S1	inconclusive: 13 µM [falling, partial curve, poor fit]	–
CC(=O)N/N=C/c1c(C)[nH]n(-c2ccccc2)c1=O	inconclusive: 16.4 µM [falling, partial curve, poor fit]	–
Cc1c(NC(=O)c2ccc(Cl)cc2)cc(C(C)C)c(O)c1S(=O)(=O)c1ccc(Cl)cc1	–	inactive: -4.71%
CCOc1ccc(NC(=O)N2CCC(CN3CCc4ccccc4C3)CC2)cc1	–	inactive: -5.85%
Cc1sc2cc3c(c(C(=O)c4ccccc4)[n+]2c1C)-c1cccc2cccc-3c12	inconclusive: 10.3 µM [falling, partial curve]	–
Cc1c(N=Nc2c(-c3ccc([N+](=O)[O-])cc3)[nH]n(C(N)=S)c2=O)cccc1[N+](=O)[O-]	inconclusive: 16.4 µM [falling, single point]	–
CCN(CC)S(=O)(=O)c1cc(-c2nnc(Nc3ccc(OC)c(C(N)=O)c3)c3ccccc23)ccc1C	inconclusive: 18.4 µM [falling, partial curve, poor fit]	–
O=C(Nc1ccc(N2CCN(C(=O)c3ccco3)CC2)cc1)c1ccc(F)cc1	–	inactive: -6.58%
O=C(Nc1ccc2c(c1)C(=O)NC2=O)c1cccc(Cl)c1	–	inactive: 0.555%
O=C(CSc1ncnc2sc3c(c12)CCCCC3)NCc1ccco1	–	inactive: -13.1%
Oc1ccc(N=Nc2ccccc2-c2nn[nH]n2)c(O)c1	inconclusive: 18.4 µM [falling, single point]	–
CCOC(=O)C1=C(CNCc2ccc(C)cc2)NC(=O)NC1c1ccc(OC)cc1 (centres undefined)	inconclusive: 16.4 µM [falling, single point]	–
Cc1ccc(C)c(NC(=S)NNC(=S)Nc2ccc(C(C)C)cc2)c1	inconclusive: 29.1 µM [falling, single point]	–
Cc1ccc(C(=O)/C=C/c2ccc(Br)cc2)o1	inconclusive: 29.1 µM [falling, single point]	–
Cc1ccc(CNC(=O)c2nnc(Cc3cccc(F)c3)o2)cc1	inconclusive: 32.6 µM [activator, partial curve, poor fit]	–
COc1ccc(/C=C/C(=O)c2ccc(C)c([N+](=O)[O-])c2)cc1O	–	inactive: -8.98%
CCOc1ccc(Nc2nc(NCC3CCCO3)c3ccccc3n2)cc1 (centres undefined)	inconclusive: 29.1 µM [falling, partial curve, poor fit]	–
COc1ccc(-c2cc(-c3ccc(OC)cc3)nc(-c3ccc4c(c3)NC(=O)CO4)c2)cc1	inconclusive: 5.8 µM [falling, partial curve, poor fit]	–
CCOc1cc(N2CCOCC2)c(OCC)cc1NC(=O)c1cc(-c2ccco2)nc2ccccc12	inconclusive: 20.6 µM [falling, single point]	–

Retrieved by compound from the list above:
SMILES	Potency	activity change, negative = cytotoxicity
CC(=O)N/N=C/c1c(C)[nH]n(-c2ccccc2)c1=O	inconclusive: 16.4 µM [falling, partial curve, poor fit]	–
CCOC(=O)C1=C(CNCc2ccc(C)cc2)NC(=O)NC1c1ccc(OC)cc1 (centres undefined)	inconclusive: 16.4 µM [falling, single point]	–
Cc1ccc(CNC(=O)c2nnc(Cc3cccc(F)c3)o2)cc1	inconclusive: 32.6 µM [activator, partial curve, poor fit]	–
